# From PubChem BioAssay AID485314 (National Center for Advancing Translational Sciences (NCATS), 2010)
# Hit rate of the full screen: of about 340,000 compounds, about 4,500 (1.3%) were called active. The shares of active, inactive and inconclusive entries below differ from those in the screen. Calls follow the shape of the dose curve; as a rule, active = well fitted inhibition curve with a large enough effect; inconclusive = small, poorly fitted or top-dose-only effect, or another doubt; inactive = no such curve, though single readings can be large or run the other way. A potency beside an inconclusive call is a rough fit, not a confirmed value.
# Biological target: DNA polymerase beta (Homo sapiens) (UniProt P06746)
# Experiment: qHTS Assay for Inhibitors of DNA Polymerase Beta
# Settings: Pol beta primer extension/strand displacement, fluorescence kinetic; series mostly up to 114 µM
# Procedure, shortened: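 Kinetic readout of DNA synthesis with strand displacement by Pol beta. Compound and 10 nM enzyme sit 15 min at room temperature; 50 nM substrate starts the reaction, read immediately and at 10 min.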
# Potency is read from the fitted curve at half-maximal effect.
row,Structure (SMILES),Potency
1,O=C(CSc1nnc(SCc2cccc3ccccc23)s1)c1ccc2c(c1)OCO2,inactive
2,CC(C(=O)NCc1ccc2c(c1)OCO2)c1ccc([N+](=O)[O-])cc1 (stereo unspecified),"inconclusive: 100 µM [inhibitor, single point]"
3,O=C(N/N=C/c1cn(Cc2ccccc2)c2ccccc12)c1ccncc1,"inconclusive: 28.2 µM [inhibitor, partial curve]"
4,CCN(CCCNC(=O)c1ccc(Sc2ccc(C)cc2)c(NC(C)=O)c1)c1cccc(C)c1,"inconclusive: 89.1 µM [inhibitor, single point]"
5,CC(=O)Nc1ccc(S(=O)(=O)N2CCN(c3cc4c(cc3[N+](=O)[O-])n(C)c(=O)n4C)CC2)cc1,inactive
6,O=C(CSc1ccc(-c2ccco2)nn1)NC1CCCC1,inactive
7,Cc1ccc(S(=O)(=O)c2nnn(CC(=O)Nc3ccccc3C)c2N)cc1C,"inconclusive: 22.4 µM [inhibitor, partial curve]"
8,COc1ccccc1NC(=S)NCCSc1ccc(C)cc1,"inconclusive: 0.112 µM [inhibitor, full curve, poor fit]"
9,c1ccc(-c2nc(-n3ccnc3)nc(-n3ccnc3)n2)cc1,inactive
10,O=S(=O)(O)c1cc(O)c2c(O)c(N=Nc3cc(Cl)ccc3O)c(S(=O)(=O)O)cc2c1,active: 31.6 µM
11,CCCn1c(N)c(C(=O)CSc2nnc(C)n2Cc2ccccc2)c(=O)n(C)c1=O,"inconclusive: 0.112 µM [inhibitor, full curve]"
12,CC(CCc1ccccc1)NC(=O)c1ccc(Br)o1 (stereo unspecified),"inconclusive: 89.1 µM [inhibitor, single point]"
13,COc1ccc(NC(=O)C#Cc2ccccc2)cc1,"inconclusive: 39.8 µM [inhibitor, partial curve]"
14,O=C(CCC1N=C2c3ccccc3N=C(SCc3ccccc3Cl)N2C1=O)NCc1cccs1 (stereo unspecified),inactive
15,O=[N+]([O-])c1ccc(C(O)CN=Cc2ccc(O)cc2O)cc1 (stereo unspecified),"inconclusive: 79.4 µM [inhibitor, single point]"
16,COc1cccc(CN2CC(C(=O)NCCCCc3ccccn3)CCC2=O)c1 (stereo unspecified),"inconclusive: 31.6 µM [inhibitor, single point]"
17,COc1cc(CNc2ccc3[nH]c(=O)[nH]c3c2)ccc1OCC(=O)NC(C)(C)C,"inconclusive: 39.8 µM [inhibitor, partial curve, poor fit]"
18,O=C1C(=O)N(CCCN2CCOCC2)C(c2ccc(Cl)cc2)/C1=C(\O)c1ccc2c(c1)OCCO2 (stereo unspecified),"inconclusive: 3.55 µM [inhibitor, partial curve, poor fit]"
19,CC1=C(C(=O)OCc2ccccc2)C(c2ccc3ccccc3c2)NC(=O)N1CCCC(=O)O (stereo unspecified),"inconclusive: 0.708 µM [inhibitor, full curve, poor fit]"
20,COc1ccc(-c2nnn3c2nc(NCc2ccccc2)c2ccccc23)cc1,"inconclusive: 39.8 µM [inhibitor, single point]"
21,CCS(=O)(=O)N1Cc2ccccc2CC1C(=O)Nc1ccc(NC(C)=O)cc1 (stereo unspecified),inactive
22,Cc1cccc2c(N=O)c(O)[nH]c12,inactive
23,CC(C)CNC(=S)NNC(=O)c1csc2c1CCCC2,"inconclusive: 89.1 µM [inhibitor, single point]"
24,Cc1ccc(C(=O)N/C(=C\c2ccccc2F)c2nc(=S)[nH][nH]2)cc1,"inconclusive: 89.1 µM [inhibitor, single point]"

row,Structure (SMILES),Potency
1,O=C(CSc1nc2ccccc2c(=O)n1Cc1ccco1)NCc1ccco1,"inconclusive: 44.7 µM [inhibitor, partial curve, poor fit]"
2,CCOC(=O)c1cc(-c2ccccc2)n(CCC(=O)Nc2ccc(OC)c(Cl)c2)c1C,"inconclusive: 79.4 µM [inhibitor, single point]"
3,Cc1nn(Cc2ccc(C(=O)Nc3ccc(C(=O)OC(C)C)cc3)o2)c(C)c1Cl,active: 44.7 µM
4,CCc1ccc(NC(=O)Cn2c(=O)n(CCCC(=O)NCc3ccccc3OC)c(=O)c3ccccc32)cc1,inactive
5,N#Cc1c(NCCN)nc(-c2ccco2)c2c1CCCC2,active: 56.2 µM
6,Cc1nc(Nc2cccc(Cl)c2)c2oc3ccccc3c2n1,"inconclusive: 0.501 µM [inhibitor, partial curve, poor fit]"
7,O=C(N/N=C/c1cn(CCOc2ccccc2)c2ccccc12)c1ccncc1,"inconclusive: 79.4 µM [inhibitor, single point]"
8,CCOC(=O)c1csc(NC(=O)C2=COCCO2)n1,"inconclusive: 89.1 µM [inhibitor, single point]"
9,CCOC(=O)c1noc2ncn(CC(=O)Nc3ccc(OC)c(Cl)c3)c(=O)c12,"inconclusive: 31.6 µM [inhibitor, single point]"
10,CCS(=O)(=O)N1CCc2cc(C(=O)N3CCN(c4ccccc4)CC3)ccc21,inactive
11,COc1ccc2oc(C)c(C(N)=O)c2c1,"inconclusive: 89.1 µM [inhibitor, single point]"
12,O=C1/C(=C/c2ccccn2)SC(=S)N1c1ccc(O)cc1,inactive
13,O=C(Cc1cccs1)Nc1nnc(SCc2cccc3ccccc23)s1,active: 8.91 µM
14,O=C(COc1c(Cl)cccc1Cl)NN1C(=O)CSC1=S,inactive
15,O=C(O)/C=C/C(=O)Nc1ccc(OC(F)(F)F)cc1Br,"inconclusive: 89.1 µM [inhibitor, single point]"
16,COc1ccc(NS(=O)(=O)c2ccc(O)c(C(=O)OCC(=O)Nc3ccc4c(c3)OCCO4)c2)cc1,"inconclusive: 89.1 µM [inhibitor, single point]"
17,Cc1cc(NC(=O)COC(=O)Cn2c(C)csc2=O)ccc1Br,inactive
18,COC(=O)c1cn(-c2ccccc2)nc1C(=O)OC,inactive
19,Cn1c(=O)c(Nc2ccc(Cl)cc2)c2c3c(cccc31)C(=O)c1ccccc1-2,"inconclusive: 22.4 µM [inhibitor, full curve, poor fit]"
20,N#C/C(=C\c1ccccc1)c1nc(-c2cc3c(ccc4ccccc43)oc2=O)cs1,inactive
21,O=C(COC(=O)c1cc(-c2cccs2)nc2ccccc12)NCc1ccco1,active: 22.4 µM
22,CCc1ccc(NC(=O)CSc2nnnn2-c2cccnc2)cc1,"inconclusive: 12.6 µM [inhibitor, full curve]"
23,O=C(O)/C=C/C(=O)Nc1ccc(C2(c3ccc(NC(=O)/C=C/C(=O)O)cc3)c3ccccc3-c3ccccc32)cc1,active: 50.1 µM
24,O=C(NC(=S)Nc1ccc(S(=O)(=O)Nc2ncccn2)cc1)c1cccc(Br)c1,"inconclusive: 89.1 µM [inhibitor, single point]"

# A different layout for some results above:
row | Structure (SMILES) | Potency
9 | CCOC(=O)c1noc2ncn(CC(=O)Nc3ccc(OC)c(Cl)c3)c(=O)c12 | inconclusive: 31.6 µM [inhibitor, single point]
10 | CCS(=O)(=O)N1CCc2cc(C(=O)N3CCN(c4ccccc4)CC3)ccc21 | inactive
11 | COc1ccc2oc(C)c(C(N)=O)c2c1 | inconclusive: 89.1 µM [inhibitor, single point]
12 | O=C1/C(=C/c2ccccn2)SC(=S)N1c1ccc(O)cc1 | inactive

# Additional structures follow:

row,Structure (SMILES),Potency
1,Cc1ccc(SCc2cc(=O)n(C)[nH]2)cc1,"inconclusive: 89.1 µM [inhibitor, single point]"
2,COc1ccc(N2CC(c3nc(-c4ccccc4C)no3)CC2=O)cc1Cl (stereo unspecified),inactive
3,CN1CCN(C(=S)SCc2nc(N)nc(Nc3ccc(F)cc3)n2)CC1,"inconclusive: 44.7 µM [inhibitor, partial curve]"
4,CCc1ccc(NS(=O)(=O)c2ccc3[nH]cc(C(=O)NCCc4ccccc4)c(=O)c3c2)cc1,"inconclusive: 14.1 µM [inhibitor, full curve]"
5,CCOC(=O)c1ccc2[nH]c3c(c2c1)CN(C)CC3,"inconclusive: 12.6 µM [inhibitor, full curve, poor fit]"
6,O=C(/C=C/c1ccccc1O)c1ccc(Cl)cc1,inactive
7,O=C(Nc1ccccc1)Nc1ccc(NC(=O)c2ccccc2O)cc1,active: 31.6 µM
8,O=C(COC(=O)c1cc(S(=O)(=O)NCc2ccccc2)ccc1O)c1cc2ccccc2o1,"inconclusive: 25.1 µM [inhibitor, full curve, poor fit]"
9,COc1ccc(C(=O)CSc2nc3[nH]ncc3c(=O)[nH]2)cc1,"inconclusive: 2.24 µM [inhibitor, full curve, poor fit]"
10,CN(C)c1cccc(C(=O)NCCCSc2ccccc2)c1,"inconclusive: 79.4 µM [inhibitor, single point]"
11,CCCc1ccc(OC(=O)c2sc3ncn(Cc4cccc(F)c4)c(=O)c3c2C)cc1,inactive
12,CC(C)c1ccc(O)c(NC(=S)NC(=O)c2ccc3c(c2)OCO3)c1,inactive
13,CC1=C(C(=O)NCc2ccco2)C2(CCC(C)CC2)OC1=O (stereo unspecified),"inconclusive: 39.8 µM [inhibitor, single point]"
14,COc1ccccc1CN(Cc1cc2cc3c(cc2[nH]c1=O)OCCO3)Cc1nnnn1Cc1ccco1,active: 14.1 µM
15,CC(C)c1ccc(/C=C2\SC(=O)N(CC(=O)NC3CCS(=O)(=O)C3)C2=O)cc1 (stereo unspecified),"inconclusive: 44.7 µM [inhibitor, partial curve, poor fit]"
16,O=C(CSc1nnc(CNc2ccccc2)o1)N1CCCc2ccccc21,"inconclusive: 6.31 µM [inhibitor, full curve, poor fit]"
17,Cc1nnc(SCC(=O)NC(=O)NCCC(C)C)s1,inactive
18,CCC(=O)n1nc(-c2ccco2)nc1SCc1ccccc1,active: 22.4 µM
19,COc1cc(NS(=O)(=O)c2ccc3c(c2)OCC(C(=O)N2CCCC2)O3)cc(OC)c1 (stereo unspecified),"inconclusive: 70.8 µM [inhibitor, partial curve]"
20,O=C(NNC(=O)c1ccc(Br)s1)NC1CCCCC1,active: 22.4 µM
21,CCC(O)(CC)C(=O)NN(C(=O)Nc1csc2c1CCCC2)c1ccccc1,"inconclusive: 1.78 µM [inhibitor, partial curve, poor fit]"
22,CCSc1nnc(-c2cccc(S(=O)(=O)N(CC)CC)c2)n1Cc1ccccc1,inactive
23,Cc1cn(-c2cc(C(=O)Nc3ccc(C)c(NC(=O)N4CCNC4=O)c3)cc(C(F)(F)F)c2)cn1,"inconclusive: 10 µM [inhibitor, partial curve, poor fit]"
